Laboratory results reported in patent publication US7514207B2, “Methods of screening for compounds that decrease phosphorylation of merlin and may be useful in cancer treatment” (Massachusetts Institute of Technology, priority 2001, dated 2009).
These are yes or no findings as the source states them, for the method shown. Binding seen in cells or lysates may run through a third protein. Some entries that bind do so weakly or less than the wild type.

Protein sequences, listed by entry. Tags and fused reporters are not part of them. Lines headed by an entry give the natural chain unless they say otherwise; changes in a name come on top. Chains listed by the source or under a name are the forms on record and can include a tag or linker.
UniProt Q13177: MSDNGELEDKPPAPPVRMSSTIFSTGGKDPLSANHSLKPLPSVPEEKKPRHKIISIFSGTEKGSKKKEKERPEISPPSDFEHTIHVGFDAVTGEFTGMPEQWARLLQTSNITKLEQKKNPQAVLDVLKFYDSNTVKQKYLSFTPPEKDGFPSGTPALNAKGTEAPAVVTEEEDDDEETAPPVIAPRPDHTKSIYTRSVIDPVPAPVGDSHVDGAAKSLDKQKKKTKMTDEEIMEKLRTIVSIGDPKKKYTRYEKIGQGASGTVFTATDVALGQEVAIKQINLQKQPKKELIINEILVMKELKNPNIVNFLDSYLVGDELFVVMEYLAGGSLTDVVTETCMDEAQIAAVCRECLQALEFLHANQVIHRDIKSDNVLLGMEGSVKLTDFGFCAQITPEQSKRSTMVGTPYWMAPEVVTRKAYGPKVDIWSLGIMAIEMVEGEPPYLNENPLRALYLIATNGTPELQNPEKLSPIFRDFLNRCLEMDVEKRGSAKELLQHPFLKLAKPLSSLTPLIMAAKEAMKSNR
UniProt Q13153: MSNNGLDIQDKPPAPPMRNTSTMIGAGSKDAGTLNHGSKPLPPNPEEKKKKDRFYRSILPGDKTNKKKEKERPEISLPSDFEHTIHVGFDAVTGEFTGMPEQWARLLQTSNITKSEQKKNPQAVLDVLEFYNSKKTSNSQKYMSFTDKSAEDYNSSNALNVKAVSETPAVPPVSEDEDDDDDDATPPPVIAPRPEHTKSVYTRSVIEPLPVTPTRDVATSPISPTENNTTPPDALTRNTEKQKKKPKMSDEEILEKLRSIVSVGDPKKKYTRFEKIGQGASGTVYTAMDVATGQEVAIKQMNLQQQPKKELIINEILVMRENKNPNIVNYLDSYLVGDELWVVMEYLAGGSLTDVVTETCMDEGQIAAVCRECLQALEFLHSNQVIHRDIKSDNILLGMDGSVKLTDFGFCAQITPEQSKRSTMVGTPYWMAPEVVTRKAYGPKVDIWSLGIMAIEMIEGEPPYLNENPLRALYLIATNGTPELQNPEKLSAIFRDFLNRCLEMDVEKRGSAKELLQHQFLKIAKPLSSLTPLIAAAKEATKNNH
PAK3 (transfected) (O75914, form named): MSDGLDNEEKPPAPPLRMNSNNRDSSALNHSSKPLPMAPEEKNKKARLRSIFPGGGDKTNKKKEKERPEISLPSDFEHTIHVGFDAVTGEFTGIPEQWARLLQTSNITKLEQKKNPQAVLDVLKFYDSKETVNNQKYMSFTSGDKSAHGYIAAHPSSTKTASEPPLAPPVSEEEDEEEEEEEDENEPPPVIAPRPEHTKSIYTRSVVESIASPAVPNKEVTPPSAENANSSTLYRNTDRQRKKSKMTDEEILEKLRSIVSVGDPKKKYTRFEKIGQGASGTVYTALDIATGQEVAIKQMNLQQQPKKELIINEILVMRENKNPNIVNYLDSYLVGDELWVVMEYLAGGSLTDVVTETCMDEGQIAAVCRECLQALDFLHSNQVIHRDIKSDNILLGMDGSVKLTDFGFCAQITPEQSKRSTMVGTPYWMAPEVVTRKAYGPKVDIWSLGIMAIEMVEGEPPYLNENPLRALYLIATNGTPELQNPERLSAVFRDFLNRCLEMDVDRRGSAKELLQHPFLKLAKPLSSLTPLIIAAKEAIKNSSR
UniProt P35240: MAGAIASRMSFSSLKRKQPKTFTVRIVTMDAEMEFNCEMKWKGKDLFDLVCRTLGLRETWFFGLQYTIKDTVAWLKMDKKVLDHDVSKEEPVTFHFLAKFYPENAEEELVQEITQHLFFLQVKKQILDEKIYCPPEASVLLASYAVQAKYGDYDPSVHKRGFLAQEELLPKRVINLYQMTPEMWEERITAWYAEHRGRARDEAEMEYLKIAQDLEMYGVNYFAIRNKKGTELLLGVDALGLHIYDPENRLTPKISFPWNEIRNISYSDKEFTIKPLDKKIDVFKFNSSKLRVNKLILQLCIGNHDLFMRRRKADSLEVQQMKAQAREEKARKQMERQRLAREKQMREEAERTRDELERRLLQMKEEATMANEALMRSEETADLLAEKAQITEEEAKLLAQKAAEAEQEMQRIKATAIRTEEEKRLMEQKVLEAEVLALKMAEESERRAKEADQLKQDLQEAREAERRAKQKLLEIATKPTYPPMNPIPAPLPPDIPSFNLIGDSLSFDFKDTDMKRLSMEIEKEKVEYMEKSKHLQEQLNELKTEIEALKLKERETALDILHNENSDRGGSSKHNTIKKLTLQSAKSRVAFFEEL

Columns and labels:
Assay in all cases: co-immunoprecipitation from transfected NIH3T3 cells
[1] = biological target: PAK2 wild-type (transfected) (UniProt Q13177)
PAK1 (transfected) = PAK1 (transfected) (UniProt Q13153)
PAK3 (transfected) = PAK3 (transfected) (UniProt O75914)

Measured: binding

wild-type merlin (full-length, ectopically expressed) (from UniProt P35240 1-595)
binds: all assays above
